For 1 substance, binding results are on record in paper PMC4640669.

Amino acid sequences for entries named in this document (tags omitted).
UniProt Q61501: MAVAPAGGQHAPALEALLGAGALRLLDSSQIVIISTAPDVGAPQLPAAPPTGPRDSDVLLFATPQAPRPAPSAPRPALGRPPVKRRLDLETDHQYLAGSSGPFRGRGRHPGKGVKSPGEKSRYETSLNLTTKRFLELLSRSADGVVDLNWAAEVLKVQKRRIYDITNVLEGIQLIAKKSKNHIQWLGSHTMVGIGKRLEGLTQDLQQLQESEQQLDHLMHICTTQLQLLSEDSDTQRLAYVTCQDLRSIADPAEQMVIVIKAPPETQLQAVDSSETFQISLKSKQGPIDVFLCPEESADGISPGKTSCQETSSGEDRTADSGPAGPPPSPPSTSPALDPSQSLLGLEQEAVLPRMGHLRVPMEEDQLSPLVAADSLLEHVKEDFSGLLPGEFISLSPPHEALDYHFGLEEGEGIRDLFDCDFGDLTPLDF

No constants are given. Whether binding was seen depends on the method and setting. Some entries that bind do so weakly or less than the wild type.

The test deals with T1, retinoblastoma tumor suppressor protein (Rb) (mouse (endogenous in MC3T3)) (UniProt P13405).
T1 sequence: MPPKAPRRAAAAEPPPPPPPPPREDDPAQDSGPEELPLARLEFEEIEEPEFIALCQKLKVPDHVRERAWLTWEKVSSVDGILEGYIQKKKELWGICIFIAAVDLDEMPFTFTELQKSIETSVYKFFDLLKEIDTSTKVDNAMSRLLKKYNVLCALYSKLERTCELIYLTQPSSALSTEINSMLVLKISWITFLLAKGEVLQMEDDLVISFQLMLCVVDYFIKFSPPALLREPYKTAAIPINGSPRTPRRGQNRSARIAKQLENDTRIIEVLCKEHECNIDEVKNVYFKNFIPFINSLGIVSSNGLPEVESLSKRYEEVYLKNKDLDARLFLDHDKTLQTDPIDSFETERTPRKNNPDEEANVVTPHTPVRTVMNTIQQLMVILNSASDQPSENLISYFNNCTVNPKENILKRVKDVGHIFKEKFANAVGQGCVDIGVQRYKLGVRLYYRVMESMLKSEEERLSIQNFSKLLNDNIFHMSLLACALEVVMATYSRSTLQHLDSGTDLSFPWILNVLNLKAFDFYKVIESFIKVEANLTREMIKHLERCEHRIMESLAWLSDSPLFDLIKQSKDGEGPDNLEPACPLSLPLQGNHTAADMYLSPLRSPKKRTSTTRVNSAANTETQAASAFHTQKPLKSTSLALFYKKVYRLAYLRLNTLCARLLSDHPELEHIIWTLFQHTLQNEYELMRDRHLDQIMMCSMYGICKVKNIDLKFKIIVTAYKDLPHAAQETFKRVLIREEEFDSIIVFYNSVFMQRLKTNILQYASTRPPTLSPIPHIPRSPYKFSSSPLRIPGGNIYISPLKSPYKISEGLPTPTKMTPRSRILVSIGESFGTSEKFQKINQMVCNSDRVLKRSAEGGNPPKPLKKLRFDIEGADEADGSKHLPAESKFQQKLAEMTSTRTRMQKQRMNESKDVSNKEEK
The experiment in a line: sequential chromatin immunoprecipitation (ChIP-on-ChIP); Rb+/+ MC3T3 cells cross-linked with 1% formaldehyde, DNA sheared to 1.0-1.5 kbp; immunoprecipitate obtained with anti-Rb antibody subjected to a second round with anti-E2F1 antibody; read out by PCR with primers against the Pak1 promoter.

For “E2F1 transcription factor (from UniProt Q61501 1-430)”, the binding entry is listed as “binds”.
